{"source": "patent US11376261B2", "about": "“Methods for diagnosing and managing treatment of atopic dermatitis” (University of Cincinnati, priority 2017, dated 2022)", "system": "AD skin lesions", "assay": "Pre- vs post-treatment cutaneous gene expression, betamethasone and pimecrolimus (NCBI GEO GSE32473), overlap with 89ADGES", "assay_type": "in vivo, human", "conditions": "compared to pimecrolimus; stated in Example 6", "procedure": "Pre- and post-treatment gene expression datasets have been retrieved from publicly accessible database NCBI GEO, including datasets related to three widely-used treatments for AD: betamethasone and pimecrolimus (NCBI GEO data GSE32473), and dupilumab 300 mg (NCBI GEO data GSE59294).\nMembers of 89ADGES that are differentially regulated due to the application of betamethasone to AD skin lesions. […] CCL18, MSMB, SERPINB3 and SERPINB4 genes are associated with multiple array IDs.\nBTC, CCL18, MSMB, IL-37, SERPINB3 and SERPINB4 genes are associated with multiple array IDs.\nFIG. 6 is a table showing expression of members of the ECZEMA55 gene panel compared to normal skin. Expression changes are due to different treatment options. Betamethasone, pimecrolimus, and dupilumab are shown. Note direction and magnitude of treatment-related expression change for each gene. Treatment inducing change in a direction opposite to that occurring in ECZEMA55 can drive treatment-associated health benefits.", "note": "At least one compound was matched to its structure with a doubt left.", "data": [{"compound": "C[C@H]1C[C@H]2[C@@H]3CCC4=CC(=O)C=C[C@]4(C)[C@@]3(F)[C@@H](O)C[C@]2(C)[C@@]1(O)C(=O)CO", "note": "[betamethasone]", "values": [{"measurement": "Effect on disease-related change of SERPINB4 expression", "value": "can reverse the disease-related change for SERPINB4"}]}]}
